Source: PubChem BioAssay AID493014 (National Center for Advancing Translational Sciences (NCATS), 2011)
The other results are listed elsewhere or left out. Further columns of the screen follow, without active or inactive calls. The list favours compounds with an active or inconclusive main result. Potencies come from curve fits of mixed quality, noted in brackets.

Test: qHTS Assay to Find Inhibitors of Chronic Active B-Cell Receptor Signaling
Conditions: ABC-DLBCL IkBa-CBG/CBR reporter, luminescence ratio (green luciferase fused to IkBa over red control in TMD8 lymphoma cells), 4 h
In short: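 Compounds up to 46 uM were incubated four hours with TMD8 cells whose green CBG68 luciferase is fused to IkappaBalpha; red CBR luminescence normalised the signal, and concentration-effect curves were fitted to fusion, red and ratio data.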

[1] = measured here: CBR red luminescence, cell number
[2] = measured here: IkBa-CBG green luminescence

SMILES	AC50 [1]	AC50 [2]
O=C(Nc1ccc2ccccc2c1)c1cnccn1	18.4 µM [falling, partial curve]	–
Cc1noc(/C=C/NCc2cccnc2)c1S(=O)(=O)N(C)CC(=O)N1CCc2ccccc21	3.66 µM [falling, full curve, poor fit]	–
COc1ccc(C2NC3=C(CCC3)C3(C#N)C(OC)(OC)N=C(N)C23C#N)cc1 (centres undefined)	31.6 µM [falling, single point]	–
COc1ccc(C2C(C(=O)c3cccs3)=C(O)C(=O)N2c2cccc(C)n2)cc1OC (centres undefined)	11.2 µM [rising, partial curve, poor fit]	–
CC(OC(=O)CCc1nc2ccccc2c(=O)[nH]1)C(=O)Nc1cccc(C(F)(F)F)c1 (centres undefined)	5.8 µM [rising, full curve]	–
Cc1cc(NC(=O)COC(=O)C2CCC(=O)N2)c([N+](=O)[O-])cc1C (centres undefined)	12.6 µM [rising, single point]	–
C/C(=N\NC(=O)c1ccc(O)cc1)c1ccc(N2CCOCC2)cc1	2.24 µM [falling, full curve, poor fit]	–
O=C(CSc1ccc(Cl)cc1)NC1CCCc2ccccc21 (centres undefined)	18.4 µM [rising, partial curve, poor fit]	–
O=C(COc1ccc(Cl)cc1Cl)NN=C1c2ccccc2-c2ccccc21	1.3 µM [rising, full curve]	–
O=C(c1ccsc1)N1CCCC(N2CCN(c3cccc(C(F)(F)F)c3)CC2)C1 (centres undefined)	25.1 µM [falling, single point]	–
CCCc1n[nH]c(=S)n1Cc1ccco1	1.58 µM [rising, partial curve, poor fit]	–
O=C(Nc1ncc(Cl)cn1)c1cccs1	11.6 µM [falling, partial curve, poor fit]	–
COc1ccc(CC(=O)Nc2cccc(Cl)c2C)cc1S(=O)(=O)N1CCOCC1	0.517 µM [rising, full curve, poor fit]	–
CC(C)n1nc(C(=O)Nc2nnc(C3CC3)s2)c2ccccc2c1=O	12.6 µM [rising, single point]	–
Cc1cc(F)ccc1S(=O)(=O)Nc1ncnc2sc3c(c12)CCC3	2.82 µM [falling, full curve]	–
O=[N+]([O-])c1cc(Cl)cc(/C=N/NC(=S)Nc2ccc(S(=O)(=O)N3CCOCC3)cc2)c1O	15.8 µM [falling, single point]	–
Oc1ccc(/C(Cc2ccc3ccccc3n2)=N\Nc2ccccc2)c(O)c1	7.08 µM [falling, full curve]	–
CC1(C(=O)NCCc2c[nH]c3ccccc23)C=CC2(CCCCC2)N1C(=O)c1ccccc1 (centres undefined)	0.501 µM [falling, full curve, poor fit]	–
COC(=O)C(C)Sc1n[nH]c(=S)s1 (centres undefined)	20.6 µM [rising, single point]	–
COc1ccc(CN2CCOCC2)c(C)c1C	29.1 µM [rising, single point]	–
Cc1cc(C)c2nc(C)cc(N/N=C/c3ccc(O)cc3)c2c1	10 µM [falling, partial curve]	–
CN(c1ccccc1)S(=O)(=O)c1ccc(C(=O)NCc2cccs2)cc1	6.31 µM [rising, partial curve]	–

An excerpt taken from the entries so far:
SMILES	AC50 [1]	AC50 [2]
CC(OC(=O)CCc1nc2ccccc2c(=O)[nH]1)C(=O)Nc1cccc(C(F)(F)F)c1 (centres undefined)	5.8 µM [rising, full curve]	–
Cc1cc(NC(=O)COC(=O)C2CCC(=O)N2)c([N+](=O)[O-])cc1C (centres undefined)	12.6 µM [rising, single point]	–
C/C(=N\NC(=O)c1ccc(O)cc1)c1ccc(N2CCOCC2)cc1	2.24 µM [falling, full curve, poor fit]	–
O=C(CSc1ccc(Cl)cc1)NC1CCCc2ccccc21 (centres undefined)	18.4 µM [rising, partial curve, poor fit]	–
O=C(COc1ccc(Cl)cc1Cl)NN=C1c2ccccc2-c2ccccc21	1.3 µM [rising, full curve]	–
O=C(c1ccsc1)N1CCCC(N2CCN(c3cccc(C(F)(F)F)c3)CC2)C1 (centres undefined)	25.1 µM [falling, single point]	–
CCCc1n[nH]c(=S)n1Cc1ccco1	1.58 µM [rising, partial curve, poor fit]	–
O=C(Nc1ncc(Cl)cn1)c1cccs1	11.6 µM [falling, partial curve, poor fit]	–
COc1ccc(CC(=O)Nc2cccc(Cl)c2C)cc1S(=O)(=O)N1CCOCC1	0.517 µM [rising, full curve, poor fit]	–
CC(C)n1nc(C(=O)Nc2nnc(C3CC3)s2)c2ccccc2c1=O	12.6 µM [rising, single point]	–
Cc1cc(F)ccc1S(=O)(=O)Nc1ncnc2sc3c(c12)CCC3	2.82 µM [falling, full curve]	–
O=[N+]([O-])c1cc(Cl)cc(/C=N/NC(=S)Nc2ccc(S(=O)(=O)N3CCOCC3)cc2)c1O	15.8 µM [falling, single point]	–
Oc1ccc(/C(Cc2ccc3ccccc3n2)=N\Nc2ccccc2)c(O)c1	7.08 µM [falling, full curve]	–
CC1(C(=O)NCCc2c[nH]c3ccccc23)C=CC2(CCCCC2)N1C(=O)c1ccccc1 (centres undefined)	0.501 µM [falling, full curve, poor fit]	–
COC(=O)C(C)Sc1n[nH]c(=S)s1 (centres undefined)	20.6 µM [rising, single point]	–
COc1ccc(CN2CCOCC2)c(C)c1C	29.1 µM [rising, single point]	–

(more compounds)

SMILES	AC50 [1]	AC50 [2]
COc1ccc(/C=C/C(=O)NC(=S)N2CCSCC2)cc1	–	35.5 µM [falling, single point]
O=C(/C=C/c1ccc2c(c1)OCCCO2)c1ccc2ccccc2c1O	6.51 µM [rising, partial curve]	–
C/C(=N\NC(=O)c1ccccc1O)c1ccc(NC(=O)c2ccccc2)cc1	3.16 µM [falling, full curve]	–
Cc1ccccc1OCCc1c(C)[nH]c(=S)[nH]c1=O	3.98 µM [rising, full curve]	10 µM [falling, partial curve]
COc1cc(/C=N/N=C2/C(=O)Nc3ccccc32)ccc1O	29.1 µM [falling, single point]	–
CO/N=C/c1cn(-c2ccc(Cl)cc2)nn1	35.5 µM [rising, single point]	–
O=C1CN(c2ccccc2)C(=S)N1C(=O)c1ccc(Br)cc1	31.6 µM [falling, single point]	–
COc1ccc(C2N(c3ccc4c(c3)OCCO4)C(=O)C2(F)F)cc1OC (centres undefined)	35.5 µM [rising, partial curve, poor fit]	–
COc1ccccc1-c1nnc(SCC(=O)N2CCCCC2)o1	35.5 µM [falling, single point]	–
Clc1ccc(-c2nn3c(C4COc5ccccc5O4)nnc3s2)cc1 (centres undefined)	2.51 µM [rising, full curve, poor fit]	–
COc1ccccc1NC(=O)NCCCCc1ccccc1	12.6 µM [falling, single point]	–
COc1cc2c(cc1OC)CN(C(=O)Nc1ccccc1)CC2	8.91 µM [falling, partial curve]	–
O=c1c2cc(Br)ccc2nc(-c2ccc(Cl)cc2)n1O	3.16 µM [falling, partial curve]	–
Cc1ccccc1OCC(O)CNC1CCC(NCC(O)COc2ccccc2C)CC1 (centres undefined)	2.51 µM [falling, partial curve, poor fit]	–
CCC(C)Nc1nc(N)c([N+](=O)[O-])c(NCc2ccccc2)n1 (centres undefined)	2.51 µM [rising, full curve, poor fit]	–
COc1ccc(NC(=O)C2CCOC(C)(C)C2)cc1 (centres undefined)	0.891 µM [rising, full curve, poor fit]	–
O=C(Nc1nc(-c2cccnc2)cs1)c1ccccc1Cl	0.501 µM [falling, full curve, poor fit]	–
COc1ccc(-c2nc3sc(CCNC(=O)c4ccco4)c(C)n3n2)cc1	6.31 µM [rising, full curve]	–
Nc1nnc(-c2cc3c(ccc4ccccc43)oc2=O)s1	35.5 µM [falling, single point]	–
Cn1c(Cn2cnc3ccccc32)nnc1SCC(=O)CC(=O)Nc1ccccc1	35.5 µM [falling, single point]	–
COc1ccc(/C=C/C(=O)OC(C)C(=O)c2ccccc2)cc1OC (centres undefined)	23.1 µM [rising, single point]	–
CC(C)(C)c1ccc(C(=O)Nc2ccc(S(N)(=O)=O)cc2)cc1	0.891 µM [rising, full curve, poor fit]	15.8 µM [falling, partial curve, poor fit]

SMILES	AC50 [1]	AC50 [2]
COc1ccc(Cn2nnnc2CN(Cc2cc3cc(C)ccc3[nH]c2=O)C2CCCC2)cc1	0.651 µM [rising, full curve, poor fit]	–
COc1cc2cnc(-c3ccccc3)cc2cc1OC	0.259 µM [rising, full curve]	23.1 µM [falling, partial curve, poor fit]
C=CCSc1nnc2c(n1)OC(c1cccnc1)Nc1ccccc1-2 (centres undefined)	35.5 µM [falling, single point]	–
COc1ccc(CC(=O)Nc2ccccc2C(=O)N2CCOCC2)cc1	29.1 µM [rising, single point]	–
COc1ccccc1-n1cnnc1SCC(=O)Nc1ccccc1	22.4 µM [falling, single point]	–
COc1ccc(-c2cc(-c3ccccc3)n[nH]2)c(O)c1	12.6 µM [falling, partial curve, poor fit]	–
CCn1c(SCC(=O)O)nnc1-c1cc2c(C)nn(-c3ccccc3)c2s1	3.98 µM [falling, partial curve]	–
COc1ccc(-c2ccc(SCC(=O)NCC3CCCO3)nn2)cc1OC (centres undefined)	8.91 µM [rising, partial curve]	–
CC1CCC2C(=O)N(c3ccc(C(=O)Oc4cccc5cccnc45)cc3)C(=O)C2C1 (centres undefined)	29.1 µM [falling, single point]	3.26 µM [falling, partial curve, poor fit]
CSc1ccccc1C(=O)Nc1ccc2c(c1)OCO2	25.1 µM [falling, partial curve, poor fit]	–
O=C(CCC1CCCC1)N1CCC(N2CCN(c3ccccc3)CC2)CC1	0.00461 µM [falling, full curve, poor fit]	–
N=C(N)SCc1cn(-c2ccccc2)nc1-c1ccc(Br)cc1	35.5 µM [falling, single point]	–
O=C(Nc1ccccc1N1CCN(c2ccccc2)CC1)c1cccc(F)c1	29.1 µM [rising, single point]	–
O=c1c2ccccc2nnn1COc1ccc(F)cc1Cl	11.2 µM [falling, partial curve, poor fit]	–
Cc1c(CCC(=O)NCCCC(=O)O)c(=O)oc2cc3oc4c(c3cc12)CCCC4	7.08 µM [rising, partial curve]	7.94 µM [falling, partial curve]
O=C(c1nc2nc(-c3cccs3)cc(C(F)(F)F)n2n1)N1CCN(Cc2ccccc2)CC1	0.517 µM [rising, full curve, poor fit]	–
C/C(=N\NC(=O)c1ccc(OC2CCCC2)cc1)c1ccc(O)cc1	1.12 µM [falling, full curve]	–
COc1ccc(C(=O)C2CCCN(S(=O)(=O)c3ccccc3F)C2)c(C)c1 (centres undefined)	25.1 µM [falling, single point]	–
Cc1[nH]c(=O)[nH]c(=O)c1S(=O)(=O)N1CCCC(C(=O)NCCc2ccccc2)C1 (centres undefined)	18.4 µM [rising, single point]	–
Oc1c(C(c2ccccn2)N2CCOCC2)ccc2cccnc12 (centres undefined)	–	3.16 µM [falling, partial curve, poor fit]
